Experimental data published in publication PMC7337937, “CryoEM structures of human CMG–ATPγS–DNA and CMG–AND-1 complexes” (Nucleic Acids Research, 2020).

Molecular target: human MCM3 (853 aa isoform) (human)
Test: cryo-EM structure; CMGA: AND-1 co-expressed with the CMG subunits in HEK293-F, co-purified; 1 mM ATPγS added, glutaraldehyde cross-linked before grid preparation; 6.77 Å map, CMG structure and AND-1 trimer crystal structure docked as rigid bodies; both purified

binding: no binding
B1: human AND-1, recombinant full length (natural protein, UniProt O75717 1-1129, looked up)
chain: MPATRKPMRYGHTEGHTEVCFDDSGSFIVTCGSDGDVRIWEDLDDDDPKFINVGEKAYSCALKSGKLVTAVSNNTIQVHTFPEGVPDGILTRFTTNANHVVFNGDGTKIAAGSSDFLVKIVDVMDSSQQKTFRGHDAPVLSLSFDPKDIFLASASCDGSVRVWQISDQTCAISWPLLQKCNDVINAKSICRLAWQPKSGKLLAIPVEKSVKLYRRESWSHQFDLSDNFISQTLNIVTWSPCGQYLAAGSINGLIIVWNVETKDCMERVKHEKGYAICGLAWHPTCGRISYTDAEGNLGLLENVCDPSGKTSSSKVSSRVEKDYNDLFDGDDMSNAGDFLNDNAVEIPSFSKGIINDDEDDEDLMMASGRPRQRSHILEDDENSVDISMLKTGSSLLKEEEEDGQEGSIHNLPLVTSQRPFYDGPMPTPRQKPFQSGSTPLHLTHRFMVWNSIGIIRCYNDEQDNAIDVEFHDTSIHHATHLSNTLNYTIADLSHEAILLACESTDELASKLHCLHFSSWDSSKEWIIDLPQNEDIEAICLGQGWAAAATSALLLRLFTIGGVQKEVFSLAGPVVSMAGHGEQLFIVYHRGTGFDGDQCLGVQLLELGKKKKQILHGDPLPLTRKSYLAWIGFSAEGTPCYVDSEGIVRMLNRGLGNTWTPICNTREHCKGKSDHYWVVGIHENPQQLRCIPCKGSRFPPTLPRPAVAILSFKLPYCQIATEKGQMEEQFWRSVIFHNHLDYLAKNGYEYEESTKNQATKEQQELLMKMLALSCKLEREFRCVELADLMTQNAVNLAIKYASRSRKLILAQKLSELAVEKAAELTATQVEEEEEEEDFRKKLNAGYSNTATEWSQPRFRNQVEEDAEDSGEADDEEKPEIHKPGQNSFSKSTNSSDVSAKSGAVTFSSQGRVNPFKVSASSKEPAMSMNSARSTNILDNMGKSSKKSTALSRTTNNEKSPIIKPLIPKPKPKQASAASYFQKRNSQTNKTEEVKEENLKNVLSETPAICPPQNTENQRPKTGFQMWLEENRSNILSDNPDFSDEADIIKEGMIRFRVLSTEERKVWANKAKGETASEGTEAKKRKRVVDESDETENQEEKAKENLNLSKKQKPLDFSTNQKLSAFAFKQE
notes: AND-1, human, full-length ORF from IMAGE cDNA clone 6514641; The tag is 2xStrepII-TEV; no TEV cleavage step is described; Only the SepB domain is visible in the map; also called AND-1 trimer; source: HEK293-F, transient co-transfection with the CMG subunits, co-purified as CMGA

Results are given in words; binding and its absence hold for the method and conditions named. Binding seen in cells or lysates may run through a third protein.
